According to US20150183871A1:
Results are given in words; binding and its absence hold for the method and conditions named. Some results given as binding are weak or reduced against the parent protein; the word gives no strength.

How the values were obtained:
[1] = biological target: fc-coupled full length human RGM A (47-422) (human); assay: competition ELISA: fc-conjugated full length hRGM A (0.5 µg/ml) binding to coated BMP-2
[2] = biological target: fc-coupled human RGM A light chain, fragment 0 (47-168) (human); assay: direct ELISA on hRGMA 47-168/HuIgGFc
[3] = biological target: fc-coupled full length human RGM A (47-422) (human); assay: competition ELISA: fc-coupled full length hRGM A (0.5 µg/ml) binding to coated BMP-2, detection with biotin anti-human fc and streptavidin-peroxidase
[4] = biological target: fc-coupled full length human RGM A (47-422) (human); assay: competition ELISA: fc-conjugated full length hRGM A (0.5 µg/ml) binding to coated BMP-4
[5] = biological target: rat RGM A overexpressed on cells (BAF3 cells) (rat); assay: FACS on BAF3-ratRGMA stable cell line, anti-rat IgG PE
[6] = biological target: fc-coupled full length human RGM A (47-422) (human); assay: competition ELISA: fc-conjugated full length hRGM A (0.5 µg/ml) binding to coated His-tagged Neogenin extracellular domain
[7] = biological target: fc-coupled human RGM A light chain, fragment 0 (47-168) (human); assay: competition ELISA: fc-coupled hRGM A fragment 0 (47-168, 0.5 µg/ml) binding to coated BMP-4, detection with biotin anti-human fc and streptavidin-peroxidase
[8] = biological target: rat RGM A overexpressed on cells (BAF3 cells) (rat); assay: FACS, figure legend (paragraph 377 says that only 5F9 binds)
[9] = biological target: rat RGM A overexpressed on cells (BAF3 cells) (rat); assay: FACS on BAF3 cells overexpressing rat RGM A (FIG. 1C)
[10] = biological target: fc-coupled full length human RGM A (47-422) (human); assay: competition ELISA: fc-coupled full length hRGM A (0.5 µg/ml) binding to coated BMP-4, detection with biotin anti-human fc and streptavidin-peroxidase
[11] = biological target: fc-coupled full length human RGM A (47-422) (human); assay: competition ELISA: fc-coupled full length hRGM A (0.5 µg/ml) binding to coated His-tagged Neogenin extracellular domain, detection with biotin anti-human fc and streptavidin-peroxidase

binding [1]: binds | binding [2]: binds | binding [3]: binds | binding [4]: binds | binding [5]: binds | binding [6]: binds | binding [7]: binds | binding [8]: binds | binding [9]: binds | binding [10]: binds | binding [11]: binds
B1: rat anti-human RGM A monoclonal antibody 5F9 (antibody, V domains shown)
VH: EVQLVESGGGLVQPGSSLKLSCVASGFTFSNYGMNWIRQAPKKGLEWIGMIYYDSSEKHYADSVKGRFTISRDNSKNTLYLEMNSLRSEDTAIYYCAKGTTPDYWGQGVMVTVSS
VL: DVVLTQTPVSLSVTLGDQASMSCRSSQSLEYSDGYTFLEWFLQKPGQSPQLLIYEVSNRFSGVPDRFIGSGSGTDFTLKISRVEPEDLGVYYCFQATHDPLTFGSGTKLEIKR
